## Primary screen of a compound library

The values are deposited in ChEMBL (CHEMBL3988442, “University of Dundee, Small-Polar-MMV Screening Library” (2021)).

Results are given as percent effect. The record does not define 0% and 100%; most values in the screen are far below 50% and negative numbers occur (in some assays of this library far below -100). The compounds are a random part of those screened. Two or more numbers in one place are separate tests of the same structure; such repeats can differ widely.

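Phenotypic screen: M. tuberculosis growth, cholesterol and DPPC medium, 4 days; the read-out is not stated. Concentration: 50 µM. Higher reads as more growth inhibition (inferred: compounds with an IC50 in retests scored well above the rest). Of about 69,000 compounds tested this way, about 370 (0.54%) reached 50% or more in at least one test.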

| Compound | percent effect |
|---|---|
| `CC(C)(C)CN(CCO)C(=O)Nc1cccc(N2CCNC2=O)c1` | -4.282 |
| `CCN(CC)C1(Cc2cc(-c3cccc(O)c3)on2)COC1` | 4.415 |
| `CN(C)C(=O)N1CCN(C(=O)Nc2nc(-c3ccccc3)ns2)CC1` | 1.075 and 9.254 |
| `CC(NC(=O)Cn1cccn1)c1ccc2c(c1)OCCO2` (stereo not drawn) | 3.267 |
| `Cc1nc(CN2CCC3(CCN(c4ncc(F)cn4)C3)C2=O)cs1.O=C(O)C(F)(F)F` (stereo not drawn) | -23.4 |
| `O=S1(=O)CCC(n2cc(CNc3ccccc3Br)cn2)C1` (stereo not drawn) | -12.05 |
| `CCc1ccc(C(=O)N2CCCCC2CNS(C)(=O)=O)o1` (stereo not drawn) | 12.49 |
| `Cc1cc2nc(CO[C@H]3CN(CC4CC4)C[C@H]3F)[nH]c2cc1C` | -10.1 |
| `Nc1nc(CN2CCCCC2Cn2cncn2)nc2ccccc12` (stereo not drawn) | 6.291 |
| `CCn1ccc(-c2nnc(SCC(=O)Nc3ccc(C)cc3)n2CC)n1` | -2.842 |
| `CN1CC(=O)N(c2cccc(F)c2)CC12CCN(Cc1cccnc1)C2.O=C(O)C(F)(F)F.O=C(O)C(F)(F)F.O=C(O)C(F)(F)F` (stereo not drawn) | -1.167 |
| `CCOc1cccc(NS(=O)(=O)c2cc(C(=O)O)cs2)c1` | 2.43 |
| `Cc1nc(-c2ccsc2)ccc1C(=O)NCC(C)N1CCOCC1` (stereo not drawn) | 9.224 |
| `CN(C)C(=O)COC1COC2(CCN(c3ncccn3)CC2)C1` (stereo not drawn) | -6.329 |
| `COC(=O)c1cccn1C1CCN(C(=O)c2ccc(C)[nH]c2=O)CC1` | -1.377 |
| `Cc1cc(=O)n(CC(=O)NCC2CCCO2)c(-c2cccc(Cl)c2)n1` (stereo not drawn) | -10.6 |
| `Cc1ccc(CNCCN2CCOCC2)o1` | -1.108 |
| `Cc1ccc(-n2nc(C)c3c2NC(=O)CC3c2cnc(N)s2)cc1` (stereo not drawn) | 2.596 and 2.136 |
| `COc1ccc(CC(=O)N2CCCC2c2nc(C)c(C)c(O)n2)cc1` (stereo not drawn) | -23.7 |
| `CC(OCC1CC1)C(=O)Nc1nccn1Cc1ccccc1` (stereo not drawn) | -24.86 |
| `CCN1CCOC(CNCc2ccc(OCc3ccccn3)cc2)C1` (stereo not drawn) | -4.819 |
| `CCOC(=O)N(C)CC(=O)NCCc1coc(-c2ccc(C)cc2)n1` | 3.887 |
| `COc1ccc(-c2cc(C3CC3)c(C#N)c(N)n2)cc1F` | 12.69 |
| `CC(=O)N1CCC2(C1)c1ccccc1S(=O)(=O)N2Cc1ccccc1` (stereo not drawn) | 20.48 |
| `[H][C@]12CC[C@]([H])(CN(Cc3ccccc3)C1)N(C(=O)c1ccc(SC)cc1)C2` | 1.843 |
| `CCc1ncnc2c1CCN(Cc1ccc(OC)cc1)CC2.O=C(O)C(F)(F)F` | 5.159 |
| `Cc1n[nH]c(-c2ccc(NC(=O)C(C)N3CCN(C)CC3)cc2)n1` (stereo not drawn) | -4.439 |
| `Cc1cc(C(=O)N2CCCC(C)C2)ccc1NCC(=O)N1CCOCC1` (stereo not drawn) | -10.79 |
| `O=C(O)C(F)(F)F.[H][C@@]12CCN(c3nnc(C)s3)[C@]1([H])CC[C@@H](c1nc(C)no1)O2` | -0.1204 |
| `CC[C@H]1CN(S(C)(=O)=O)CC[C@H]1CC(=O)NCCSC` | 8.055 |
| `CC(C1CCN(Cc2cnn(C)c2C2CC2)CC1)N1CCCC1` (stereo not drawn) | -3.98 |
| `O=C(NCCNc1cnccn1)N1CCCC(N2CCCC2)C1` (stereo not drawn) | -8.982 |
| `COc1ccccc1-c1nc(C(=O)N(C)C)n2ccncc12` | -8.881 |
| `Cc1cc(CN2CCN(CCOc3cccc(C#N)c3)CC2)no1` | -22.71 |
| `Cn1ccnc1-c1cccc(NC(=O)NCCCN2CCOCC2)c1` | -31.07 |
| `CS(=O)(=O)NCC1CCN(Cc2cc3ccccc3[nH]c2=O)C1` (stereo not drawn) | 7.825 and 2 |
| `O=C(O)C(F)(F)F.O=C(O)C(F)(F)F.c1cnc(N2CCC3(COCCN(CC4CC4)C3)C2)nc1` (stereo not drawn) | -25.63 |
| `CO[C@H]1CNC[C@@H]1NC(=O)CCc1nc(-c2ccccc2)no1` | -21.51 |
| `Cn1ccnc1C1c2nc[nH]c2CCN1Cc1cccnc1` (stereo not drawn) | -3.928 and -1.369 |
| `Cn1nc2c(cc1=O)CN(CCN1CCCC1=O)CC2` | -23.06 |
| `[H][C@@]12C[C@H](c3nnc(C)o3)CN(S(=O)(=O)CC)[C@]1([H])CCO2` | -5.662 |
| `O=C(C1CC=CC1)N1CCc2c(COCc3ccncc3)cncc2C1.O=C(O)C(F)(F)F.O=C(O)C(F)(F)F` | -24.15 |
| `CS(=O)(=O)CCN1CC(c2ccccc2)(c2ccccc2)CCC1=O` | -33.82 |
| `CS(=O)(=O)NCc1cnc2n1CCN(Cc1ccco1)CC2.O=C(O)C(F)(F)F` | 15.3 |
| `Cl.Cn1ncc2c1CCCC2NCc1cc(Br)cs1` (stereo not drawn) | -9.818 |
| `Cc1cc(N)nc(C2(C)CCCN2C(=O)c2cnccn2)n1` (stereo not drawn) | -11.95 |
| `Cc1noc(CN(CCO)Cc2cc(Br)ccc2F)n1` | -10.28 |
| `[H][C@]12CC[C@]([H])(CN(Cc3cscn3)C1)N(C(=O)c1cc(C(C)C)on1)C2` | -10.9 |

Some entries from above, unchanged:

- CC(=O)N1CCC2(C1)c1ccccc1S(=O)(=O)N2Cc1ccccc1 (stereo not drawn) | 20.48%
- CCN1CCOC(CNCc2ccc(OCc3ccccn3)cc2)C1 (stereo not drawn) | -4.819%
- CS(=O)(=O)NCc1cnc2n1CCN(Cc1ccco1)CC2.O=C(O)C(F)(F)F | 15.3%